# Laboratory results published in paper PMC8359590.
# By UniProt entry, the sequences of proteins in these tests, tags left out.
# UniProt P49407: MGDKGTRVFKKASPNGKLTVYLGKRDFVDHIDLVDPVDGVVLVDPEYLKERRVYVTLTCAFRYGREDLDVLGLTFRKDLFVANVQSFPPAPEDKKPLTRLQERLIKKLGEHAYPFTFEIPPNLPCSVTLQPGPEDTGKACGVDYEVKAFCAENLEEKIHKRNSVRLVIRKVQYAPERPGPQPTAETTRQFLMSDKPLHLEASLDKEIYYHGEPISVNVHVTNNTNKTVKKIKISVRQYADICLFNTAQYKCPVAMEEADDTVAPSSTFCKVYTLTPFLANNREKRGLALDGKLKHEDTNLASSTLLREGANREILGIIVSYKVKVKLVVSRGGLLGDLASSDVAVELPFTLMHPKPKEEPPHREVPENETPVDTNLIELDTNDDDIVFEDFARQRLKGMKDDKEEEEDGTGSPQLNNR
# UniProt Q04206: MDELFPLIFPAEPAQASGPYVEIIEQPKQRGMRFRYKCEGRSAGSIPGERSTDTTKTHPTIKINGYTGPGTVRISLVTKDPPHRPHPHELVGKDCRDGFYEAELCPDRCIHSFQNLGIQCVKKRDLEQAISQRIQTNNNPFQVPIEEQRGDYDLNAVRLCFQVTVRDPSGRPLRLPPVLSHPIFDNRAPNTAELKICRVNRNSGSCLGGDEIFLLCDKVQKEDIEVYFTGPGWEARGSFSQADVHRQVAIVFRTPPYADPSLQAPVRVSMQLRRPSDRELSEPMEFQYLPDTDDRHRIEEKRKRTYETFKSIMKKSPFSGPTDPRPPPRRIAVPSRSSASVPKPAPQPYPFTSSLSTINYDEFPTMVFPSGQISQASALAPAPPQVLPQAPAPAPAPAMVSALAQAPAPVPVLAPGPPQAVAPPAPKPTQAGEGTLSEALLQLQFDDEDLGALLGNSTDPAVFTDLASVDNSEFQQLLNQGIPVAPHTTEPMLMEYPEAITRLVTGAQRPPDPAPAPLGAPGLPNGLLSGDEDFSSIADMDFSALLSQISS
# These are yes or no findings as the source states them, for the method shown. In cells and extracts the contact can be indirect. Some binding calls cover weakened binding; strength is not graded here.
# How the values were obtained:
# [1] = biological target: β-arrestin1 (ARRB1), endogenous in HepG2 cells (human (endogenous in HepG2)) (UniProt P49407); assay: co-IP; lysates of HepG2 cells treated with TNF-α (40 ng/ml); immunoprecipitation with anti-ARRB1 antibody on Protein A magnetic beads, 4 °C overnight; blots with anti-p65 or p-p65 antibodies
# [2] = biological target: β-arrestin1 (ARRB1), overexpressed from a lentiviral vector in HepG2 cells (human) (UniProt P49407); assay: co-IP; lysates of ARRB1-overexpressing HepG2 cells; immunoprecipitation with anti-GFP antibody on Protein A magnetic beads, 4 °C overnight; blots with ARRB1-, p65- and p-p65-specific antibodies
substance,measurement,setting,value
"NF-κBp65 (p65, RelA), endogenous in HepG2 cells (from UniProt Q04206 1-551)",binding,[1],binds
same,binding,[2],binds
